The test concerns the target T1, T-cell protein tyrosine phosphatase (TCPTP) (human (endogenous in HCC cells, Hep3B or HCCLM3)) (UniProt P17706).
T1 sequence: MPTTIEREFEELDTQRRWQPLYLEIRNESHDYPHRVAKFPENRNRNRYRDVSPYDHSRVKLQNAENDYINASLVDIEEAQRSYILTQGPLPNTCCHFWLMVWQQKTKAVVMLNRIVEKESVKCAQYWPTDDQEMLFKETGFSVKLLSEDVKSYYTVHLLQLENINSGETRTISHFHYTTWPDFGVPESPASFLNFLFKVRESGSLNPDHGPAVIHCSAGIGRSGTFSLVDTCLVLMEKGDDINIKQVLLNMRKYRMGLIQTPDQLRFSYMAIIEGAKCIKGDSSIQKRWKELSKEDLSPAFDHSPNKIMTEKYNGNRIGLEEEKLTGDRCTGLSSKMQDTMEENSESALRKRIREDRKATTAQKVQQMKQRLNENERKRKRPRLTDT
The experiment in a line: co-IP; endogenous TCPTP and STAT3 in HCC cells silenced by siRNA (TINCR-silenced as the set-up says); which protein was precipitated is not told.

The chains behind the UniProt entries cited, without tags or fusion partners.
UniProt P40763: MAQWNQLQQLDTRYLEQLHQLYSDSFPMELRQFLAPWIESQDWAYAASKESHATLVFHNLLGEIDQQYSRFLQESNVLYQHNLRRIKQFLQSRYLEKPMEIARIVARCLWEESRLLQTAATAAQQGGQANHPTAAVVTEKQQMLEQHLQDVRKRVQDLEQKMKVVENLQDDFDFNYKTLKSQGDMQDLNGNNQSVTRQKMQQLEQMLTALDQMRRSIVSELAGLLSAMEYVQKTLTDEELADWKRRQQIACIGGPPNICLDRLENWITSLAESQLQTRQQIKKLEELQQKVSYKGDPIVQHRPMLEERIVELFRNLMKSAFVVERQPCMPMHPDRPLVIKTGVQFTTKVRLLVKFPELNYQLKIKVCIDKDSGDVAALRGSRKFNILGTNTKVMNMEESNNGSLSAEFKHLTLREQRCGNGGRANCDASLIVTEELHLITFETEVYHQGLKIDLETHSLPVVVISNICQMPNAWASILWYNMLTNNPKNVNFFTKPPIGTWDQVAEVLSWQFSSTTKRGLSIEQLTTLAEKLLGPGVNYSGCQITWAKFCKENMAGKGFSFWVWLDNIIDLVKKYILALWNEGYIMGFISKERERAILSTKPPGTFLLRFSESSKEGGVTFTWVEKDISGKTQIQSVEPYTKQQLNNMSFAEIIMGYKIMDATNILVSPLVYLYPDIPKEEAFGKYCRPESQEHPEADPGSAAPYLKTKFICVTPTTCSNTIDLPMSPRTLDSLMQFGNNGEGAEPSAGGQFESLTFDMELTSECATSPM

Results are given in words; binding and its absence hold for the method and conditions named. In cells and extracts the contact can be indirect. Some binding calls cover weakened binding; strength is not graded here.

For the substance “signal transducer and activator of transcription 3 (STAT3) (from UniProt P40763 1-770)”, the binding entry was “binds”.

For the origin of these results see article PMC8806792.
